Measured data: PubChem BioAssay AID504804 (Drosophila RNAi Screening Center, 2011)
The deposit covers about 19,000 reagents; below is an unselected part of those that have a named target and a result. Over the whole deposit, 47 (0.25%) got an active call. 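Signals are raw, not normalised; exact z-scores behind calls not deposited; actives needed confirmation, so some wells reaching 2 SD are inactive.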 A number with no mark means an inactive call. A plus sign joins genes that one reagent is predicted to hit. Reagent sequences are not shown.

- Screen: 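dsRNAs that improve Kc cell survival under doxorubicin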 (primary screen)
- Cells: Drosophila Kc cells
- Reagents: long dsRNA against Drosophila genes, 0.5 µg dsRNA per well
- Duration: 96 h (48 h knock-down, then 48 h drug)
- Conditions: doxorubicin 5 µg/ml for 48 h, added 48 h after dsRNA
- Measured: 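Luminescent ATP counts per replicate, not normalised, reflecting viable cells after 48 h dsRNA knock-down followed by 48 h of 5 µg/ml doxorubicin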
- Scale: raw ATP luminescence: higher = more viable cells, protection from doxorubicin
- Rule for the call: 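Active when both duplicate wells lie at least 2 SD above the plate mean and protection is confirmed by rescreening and independent dsRNAs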

| gene | dsRNA | raw ATP luminescence, replicate 1 | raw ATP luminescence, replicate 2 |
| --- | --- | --- | --- |
| Gr36c | DRSC02437 | 59523 | 66847 |
| CG42372 + CG30100 | DRSC05602 | 1.13e5 | 1.09e5 |
| CG12128 | DRSC06104 | 49253 | 46357 |
| PIP4K | DRSC17213 | 41200 | 51630 |
| CG14757 | DRSC06492 | 53307 | 81443 |
| CG3748 | DRSC02716 | 49240 | 65017 |
| CG18747 | DRSC15384 | 59510 | 60840 |
| CG12935 + Nop10 | DRSC07025 | 45523 | 81930 |
| Scsalpha2 | DRSC16003 | 38607 | 39477 |
| Cks85A | DRSC16562 | 63580 | 54013 |
| Ipo9 | DRSC16813 | 61740 | 63040 |
| CG42299 + CG42300 | DRSC19680 | 3.93e5 | 3.24e5 |
| CG42299 + CG42300 | DRSC19815 | 3.59e5 | 2.82e5 |
| Kank | DRSC05513 | 88567 | 96233 |
| Kank | DRSC05933 | 72597 | 66597 |
| MED1 | DRSC11808 | 20933 | 20657 |
| bb8 | DRSC15578 | 74620 | 62300 |
| Ca-alpha1D | DRSC03284 | 1.06e5 | 79500 |
| ValRS | DRSC06864 | 54830 | 49570 |
| CG7443 | DRSC16244 | 67280 | 55240 |
| CG33272 | DRSC09116 | 84473 | 73003 |
| Pli | DRSC16792 | 34147 | 29660 |
| CG2641 | DRSC15441 | 57083 | 49187 |
| CG17107 | DRSC02575 | 43410 | 77337 |
| Enoph | DRSC12201 | 63800 | 66707 |
| CG12391 | DRSC06147 | 52903 | 58237 |
| Jon25Bii | DRSC03114 | 23340 | 33403 |
| CG4691 | DRSC01950 | 1.01e5 | 74303 |
| SelT | DRSC02732 | 84890 | 69800 |
| CG33252 | DRSC19162 | 2.70e5 | 2.87e5 |
| ste24c + CG30461 | DRSC05639 | 2.04e5 | 1.63e5 |
| ninaE | DRSC17014 | 53790 | 72950 |
| oxt | DRSC08522 | 54930 | 65250 |
| CG42750 | DRSC02458 | 33753 | 44810 |
| CG42750 | DRSC03019 | 50997 | 71333 |
| CG42750 | DRSC03024 | 83487 | 1.19e5 |
